These are yes or no findings as the source states them, for the method shown. Binding seen in cells or lysates may run through a third protein. Some binding calls cover weakened binding; strength is not graded here.
Target: poly ADP‐ribose polymerase‐1 (PARP1) (human (endogenous in KYSE-150 and TE-1)) (UniProt P09874)
Assay: co-IP; endogenous proteins in lysates of KYSE-150 and TE-1 cells (IP lysis solution with PMSF, protease and phosphatase inhibitors); antibody overnight at 4°C, Protein A/G magnetic beads 3 h at 4°C, western blot; also lysates pretreated with RNase A or recombinant RNase inhibitor (weaker with RNase A) and LNCAROD knockout KYSE-150 cells (attenuated)

Amino acid sequences for entries named in this document (tags omitted).
UniProt P09874: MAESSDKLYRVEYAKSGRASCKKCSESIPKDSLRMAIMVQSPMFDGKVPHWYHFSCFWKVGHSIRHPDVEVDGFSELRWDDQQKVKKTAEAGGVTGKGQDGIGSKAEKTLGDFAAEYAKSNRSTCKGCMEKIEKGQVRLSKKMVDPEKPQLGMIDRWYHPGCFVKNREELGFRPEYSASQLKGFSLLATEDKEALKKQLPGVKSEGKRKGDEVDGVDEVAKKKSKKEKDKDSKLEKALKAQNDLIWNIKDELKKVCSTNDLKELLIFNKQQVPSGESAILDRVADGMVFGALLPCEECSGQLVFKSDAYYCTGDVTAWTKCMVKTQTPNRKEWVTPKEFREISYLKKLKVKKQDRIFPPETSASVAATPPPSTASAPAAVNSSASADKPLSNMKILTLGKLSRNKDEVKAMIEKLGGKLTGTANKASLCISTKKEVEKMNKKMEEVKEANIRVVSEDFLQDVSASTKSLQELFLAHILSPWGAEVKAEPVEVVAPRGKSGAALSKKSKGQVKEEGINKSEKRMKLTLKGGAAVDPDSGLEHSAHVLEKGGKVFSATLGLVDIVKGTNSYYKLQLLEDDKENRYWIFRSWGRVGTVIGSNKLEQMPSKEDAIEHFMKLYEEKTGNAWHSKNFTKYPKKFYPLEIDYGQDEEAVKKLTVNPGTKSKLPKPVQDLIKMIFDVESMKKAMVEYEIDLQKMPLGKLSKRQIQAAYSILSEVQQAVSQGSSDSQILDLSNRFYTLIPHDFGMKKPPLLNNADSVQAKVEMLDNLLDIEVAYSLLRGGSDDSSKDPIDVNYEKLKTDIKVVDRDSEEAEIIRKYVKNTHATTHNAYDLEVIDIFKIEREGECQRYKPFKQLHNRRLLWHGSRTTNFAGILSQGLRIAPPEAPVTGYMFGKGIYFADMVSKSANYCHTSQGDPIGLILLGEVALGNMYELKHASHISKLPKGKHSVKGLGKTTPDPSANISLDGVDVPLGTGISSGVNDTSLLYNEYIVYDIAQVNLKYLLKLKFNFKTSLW
UniProt P06748: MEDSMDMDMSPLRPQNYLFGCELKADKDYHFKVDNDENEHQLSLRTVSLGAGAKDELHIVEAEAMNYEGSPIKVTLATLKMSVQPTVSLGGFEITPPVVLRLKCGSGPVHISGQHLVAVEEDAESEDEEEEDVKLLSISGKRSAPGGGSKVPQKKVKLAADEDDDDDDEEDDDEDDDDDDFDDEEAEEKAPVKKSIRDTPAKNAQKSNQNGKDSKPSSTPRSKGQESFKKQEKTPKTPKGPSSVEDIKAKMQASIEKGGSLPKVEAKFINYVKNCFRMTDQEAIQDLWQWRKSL

nucleophosmin 1 (NPM1) (from UniProt P06748 1-294)
binding: binds
